Some of these results come from one statement about several compounds together.
Assay: Heating of crystalline forms, analysed by x-ray powder diffraction
Assay type: physicochemical
Conditions: gentle heating
Method: X-ray diffraction data were acquired using a Philips powder X-ray diffractometer, Goniometer model 1050/70 at a scanning speed of 2° per minute, with a CUKα radiation of λ=1.5418 Å. The sample was gently ground and dusted over a zero background quartz plate to give a thin layer.
Forms V and VI convert into modafinil Form I upon gentle heating to about 80° C. or above.
Modafinil Form I may be separated from solvents conventionally by filtering or decanting and then drying.
By Heating Modafinil Forms V or VI A small aliquot of Modafinil Forms V and VI are heated separately, for about 30 minutes, in an oven at about 100° C.

SMILES | temperature at which the form converts into modafinil Form I [°C]
NC(=O)C[S+]([O-])C(c1ccccc1)c1ccccc1 (racemic) [Form V, (±) 2-[(Diphenylmethyl)sulfinyl]acetamide] | ≥ 80
NC(=O)C[S+]([O-])C(c1ccccc1)c1ccccc1 (racemic) [Form VI, (±) 2-[(Diphenylmethyl)sulfinyl]acetamide] | ≥ 80
